# Experimental data published in the supplement of paper PMC8728848.
# Some of the results follow.
# B1: AT1G77380(17) (Arabidopsis thaliana), Q39134 (protein)
# chain: MVQNHQTVLAVDMPQTGGSKYLDDDGKNKRTGSVWTASAHIITAVIGSGVLSLAWATAQLGWLAGPVVMLLFSAVTYFTSSLLAACYRSGDPISGKRNYTYMDAVRSNLGGVKVTLCGIVQYLNIFGVAIGYTIASAISMMAIKRSNCFHKSGGKDPCHMNSNPYMIAFGLVQILFSQIPDFDQLWWLSILAAVMSFTYSSAGLALGIAQVVVNGKVKGSLTGISIGAVTETQKIWRTFQALGDIAFAYSYSIILIEIQDTVKSPPSEEKTMKKATLVSVSVTTMFYMLCGCMGYAAFGDLSPGNLLTGFGFYNPYWLLDIANAAIVIHLIGAYQVYCQPLFAFIEKQASIQFPDSEFIAKDIKIPIPGFKPLRLNVFRLIWRTVFVIITTVISMLLPFFNDVVGLLGALGFWPLTVYFPVEMYIAQKKIPRWSTRWVCLQVFSLGCLVVSIAAAAGSIAGVLLDLKSYKPFRSEY
# Tests used:
# Test in all cases: glycan array binding signal (z-score within array); higher = stronger binding
# Conditions in all cases: glycan notation: IUPAC condensed, linker removed
# [1] = molecular target: GlcNAc(b1-3)Gal(b1-4)GlcNAc(b1-3)Gal(b1-4)GlcNAc(b1-2)Man(a1-3)[GlcNAc(b1-3)Gal(b1-4)GlcNAc(b1-3)Gal(b1-4)GlcNAc(b1-2)Man(a1-6)]Man(b1-4)GlcNAc(b1-4)GlcNAc
# Summary of the method: (§1)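 The binding signal is a Z-score computed within each array and averaged over linkers. Arrays of the same protein sequence at different concentrations or buffers were also averaged together. Data originate from 3228 arrays in the Consortium for Functional Glycomics database, kept only where the protein sequence was available.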
# [2] = molecular target: GlcNAc(b1-3)Gal(b1-4)GlcNAc(b1-3)Gal(b1-4)GlcNAc(b1-2)Man(a1-3)[GlcNAc(b1-3)Gal(b1-4)GlcNAc(b1-3)Gal(b1-4)GlcNAc(b1-2)Man(a1-6)]Man(b1-4)GlcNAc(b1-4)[Fuc(a1-6)]GlcNAc
# Summary of the method: as §1
# [3] = molecular target: GlcNAc(b1-3)Gal(b1-4)GlcNAc(b1-3)Gal(b1-4)GlcNAc(b1-2)[GlcNAc(b1-3)Gal(b1-4)GlcNAc(b1-3)Gal(b1-4)GlcNAc(b1-6)]Man(a1-6)[GlcNAc(b1-3)Gal(b1-4)GlcNAc(b1-3)Gal(b1-4)GlcNAc(b1-2)Man(a1-3)]Man(b1-4)GlcNAc(b1-4)[Fuc(a1-6)]GlcNAc
# Summary of the method: as §1
# [4] = molecular target: GlcNAc(b1-3)Gal(b1-4)GlcNAc(b1-3)Gal(b1-4)GlcNAc(b1-3)Gal(b1-4)GlcNAc(b1-2)Man(a1-3)[GlcNAc(b1-3)Gal(b1-4)GlcNAc(b1-3)Gal(b1-4)GlcNAc(b1-3)Gal(b1-4)GlcNAc(b1-2)Man(a1-6)]Man(b1-4)GlcNAc(b1-4)GlcNAc
# Summary of the method: as §1
# [5] = molecular target: GlcNAc(b1-3)Gal(b1-4)GlcNAc(b1-3)Gal(b1-4)GlcNAc(b1-3)Gal(b1-4)GlcNAc(b1-2)Man(a1-3)[GlcNAc(b1-3)Gal(b1-4)GlcNAc(b1-3)Gal(b1-4)GlcNAc(b1-3)Gal(b1-4)GlcNAc(b1-2)Man(a1-6)]Man(b1-4)GlcNAc(b1-4)[Fuc(a1-6)]GlcNAc
# Summary of the method: as §1
# [6] = molecular target: GlcNAc(b1-3)Gal(b1-4)GlcNAc(b1-3)Gal(b1-4)GlcNAc(b1-3)Gal(b1-4)GlcNAc(b1-2)[GlcNAc(b1-3)Gal(b1-4)GlcNAc(b1-3)Gal(b1-4)GlcNAc(b1-3)Gal(b1-4)GlcNAc(b1-6)]Man(a1-6)[GlcNAc(b1-3)Gal(b1-4)GlcNAc(b1-3)Gal(b1-4)GlcNAc(b1-3)Gal(b1-4)GlcNAc(b1-2)Man(a1-3)]Man(b1-4)GlcNAc(b1-4)[Fuc(a1-6)]GlcNAc
# Summary of the method: as §1
# [7] = molecular target: GlcNAc(b1-3)Gal(b1-4)GlcNAc(b1-3)Gal(b1-4)GlcNAc(b1-3)Gal(b1-4)GlcNAc(b1-3)Gal(b1-4)GlcNAc(b1-2)Man(a1-3)[GlcNAc(b1-3)Gal(b1-4)GlcNAc(b1-3)Gal(b1-4)GlcNAc(b1-3)Gal(b1-4)GlcNAc(b1-3)Gal(b1-4)GlcNAc(b1-2)Man(a1-6)]Man(b1-4)GlcNAc(b1-4)GlcNAc
# Summary of the method: as §1
# [8] = molecular target: GlcNAc(b1-3)Gal(b1-4)GlcNAc(b1-3)Gal(b1-4)GlcNAc(b1-3)Gal(b1-4)GlcNAc(b1-3)Gal(b1-4)GlcNAc(b1-2)Man(a1-3)[GlcNAc(b1-3)Gal(b1-4)GlcNAc(b1-3)Gal(b1-4)GlcNAc(b1-3)Gal(b1-4)GlcNAc(b1-3)Gal(b1-4)GlcNAc(b1-2)Man(a1-6)]Man(b1-4)GlcNAc(b1-4)[Fuc(a1-6)]GlcNAc
# Summary of the method: as §1
# [9] = molecular target: GlcNAc(b1-3)Gal(b1-4)GlcNAc(b1-3)Gal(b1-4)GlcNAc(b1-3)Gal(b1-4)GlcNAc(b1-3)Gal(b1-4)GlcNAc(b1-2)[GlcNAc(b1-3)Gal(b1-4)GlcNAc(b1-3)Gal(b1-4)GlcNAc(b1-3)Gal(b1-4)GlcNAc(b1-3)Gal(b1-4)GlcNAc(b1-6)]Man(a1-6)[GlcNAc(b1-3)Gal(b1-4)GlcNAc(b1-3)Gal(b1-4)GlcNAc(b1-3)Gal(b1-4)GlcNAc(b1-3)Gal(b1-4)GlcNAc(b1-2)Man(a1-3)]Man(b1-4)GlcNAc(b1-4)[Fuc(a1-6)]GlcNAc
# Summary of the method: as §1
# [10] = molecular target: GlcNAc(b1-3)Gal(b1-4)GlcNAc(b1-3)Gal(b1-4)GlcNAc(b1-3)GalNAc
# Summary of the method: as §1
# [11] = molecular target: GlcNAc(b1-3)Gal(b1-4)GlcNAc(b1-3)GalNAc
# Summary of the method: as §1
# [12] = molecular target: GlcNAc(b1-3)Gal(b1-4)GlcNAc(b1-3)[GlcNAc(b1-3)Gal(b1-4)GlcNAc(b1-3)]GalNAc
# Summary of the method: as §1
# [13] = molecular target: GlcNAc(b1-3)Gal(b1-4)GlcNAc(b1-6)[Gal(b1-3)]GalNAc
# Summary of the method: as §1
# [14] = molecular target: GlcNAc(b1-3)Gal(b1-4)GlcNAc(b1-6)[GlcNAc(b1-3)Gal(b1-3)]GalNAc
# Summary of the method: as §1
# [15] = molecular target: GlcNAc(b1-3)Gal(b1-4)GlcNAc(b1-6)[GlcNAc(b1-3)]Gal(b1-4)GlcNAc
# Summary of the method: as §1
# GlcNAc(b1-3)GalNAc = molecular target: GlcNAc(b1-3)GalNAc
# Summary of the method: as §1
# GlcNAc(b1-3)Man = molecular target: GlcNAc(b1-3)Man
# Summary of the method: as §1
# [16] = molecular target: GlcNAc(b1-3)[GlcNAc(b1-4)][GlcNAc(b1-6)]GlcNAc
# Summary of the method: as §1
# [17] = molecular target: GlcNAc(b1-3)[GlcNAc(b1-6)]Gal(b1-4)GlcNAc
# Summary of the method: as §1
# [18] = molecular target: GlcNAc(b1-3)[GlcNAc(b1-6)]GalNAc
# Summary of the method: as §1
# [19] = molecular target: GlcNAc(b1-4)Gal(b1-4)GlcNAc
# Summary of the method: as §1
# GlcNAc(b1-4)GlcNAc = molecular target: GlcNAc(b1-4)GlcNAc
# Summary of the method: as §1
# [20] = molecular target: GlcNAc(b1-4)GlcNAc(b1-4)GlcNAc
# Summary of the method: as §1
# [21] = molecular target: GlcNAc(b1-4)GlcNAc(b1-4)GlcNAc(b1-4)GlcNAc(b1-4)GlcNAc
# Summary of the method: as §1
# [22] = molecular target: GlcNAc(b1-4)GlcNAc(b1-4)GlcNAc(b1-4)GlcNAc(b1-4)GlcNAc(b1-4)GlcNAc
# Summary of the method: as §1
# [23] = molecular target: GlcNAc(b1-4)[GlcNAc(b1-6)]GalNAc
# Summary of the method: as §1
# [24] = molecular target: GlcNAc(b1-6)Gal(b1-4)GlcNAc
# Summary of the method: as §1
# GlcNAc(b1-6)GalNAc = molecular target: GlcNAc(b1-6)GalNAc
# Summary of the method: as §1
# [25] = molecular target: GlcNAc6S(b1-3)Gal(b1-4)GlcNAc
# Summary of the method: as §1
# Kdn(a2-3)Gal(b1-3)GalNAc = molecular target: Kdn(a2-3)Gal(b1-3)GalNAc
# Summary of the method: as §1
# Kdn(a2-3)Gal(b1-3)GlcNAc = molecular target: Kdn(a2-3)Gal(b1-3)GlcNAc
# Summary of the method: as §1
# Kdn(a2-3)Gal(b1-4)Glc = molecular target: Kdn(a2-3)Gal(b1-4)Glc
# Summary of the method: as §1
# Kdn(a2-3)Gal(b1-4)GlcNAc = molecular target: Kdn(a2-3)Gal(b1-4)GlcNAc
# Summary of the method: as §1
# [26] = molecular target: Kdn(a2-3)Gal(b1-4)[Fuc(a1-3)]GlcNAc
# Summary of the method: as §1
# Kdn(a2-6)Gal(b1-4)GlcNAc = molecular target: Kdn(a2-6)Gal(b1-4)GlcNAc
# Summary of the method: as §1
# [27] = molecular target: Man(a1-2)Man(a1-2)Man(a1-3)Man
# Summary of the method: as §1
# [28] = molecular target: Man(a1-2)Man(a1-2)Man(a1-6)[Man(a1-3)]Man
# Summary of the method: as §1
# Man(a1-2)Man(a1-3)Man = molecular target: Man(a1-2)Man(a1-3)Man
# Summary of the method: as §1
binder,measurement,setting,value
B1,glycan array binding signal (z-score),[1],-0.439
same,glycan array binding signal (z-score),[2],0.853
same,glycan array binding signal (z-score),[3],0.854
same,glycan array binding signal (z-score),[4],-0.612
same,glycan array binding signal (z-score),[5],0.989
same,glycan array binding signal (z-score),[6],1.21
same,glycan array binding signal (z-score),[7],-0.46
same,glycan array binding signal (z-score),[8],-0.413
same,glycan array binding signal (z-score),[9],-0.237
same,glycan array binding signal (z-score),[10],-0.766
same,glycan array binding signal (z-score),[11],-0.747
same,glycan array binding signal (z-score),[12],-0.801
same,glycan array binding signal (z-score),[13],-0.67
same,glycan array binding signal (z-score),[14],-0.352
same,glycan array binding signal (z-score),[15],2.23
same,glycan array binding signal (z-score),GlcNAc(b1-3)GalNAc,-0.766
same,glycan array binding signal (z-score),GlcNAc(b1-3)Man,1.58
same,glycan array binding signal (z-score),[16],2.47
same,glycan array binding signal (z-score),[17],0.495
same,glycan array binding signal (z-score),[18],0.803
same,glycan array binding signal (z-score),[19],0.6
same,glycan array binding signal (z-score),GlcNAc(b1-4)GlcNAc,0.009
same,glycan array binding signal (z-score),[20],0.38
same,glycan array binding signal (z-score),[21],0.469
same,glycan array binding signal (z-score),[22],0.585
same,glycan array binding signal (z-score),[23],0.256
same,glycan array binding signal (z-score),[24],-0.55
same,glycan array binding signal (z-score),GlcNAc(b1-6)GalNAc,2.85
same,glycan array binding signal (z-score),[25],-0.347
same,glycan array binding signal (z-score),Kdn(a2-3)Gal(b1-3)GalNAc,-0.657
same,glycan array binding signal (z-score),Kdn(a2-3)Gal(b1-3)GlcNAc,-0.6
same,glycan array binding signal (z-score),Kdn(a2-3)Gal(b1-4)Glc,4.07
same,glycan array binding signal (z-score),Kdn(a2-3)Gal(b1-4)GlcNAc,-0.514
same,glycan array binding signal (z-score),[26],1.37
same,glycan array binding signal (z-score),Kdn(a2-6)Gal(b1-4)GlcNAc,-0.255
same,glycan array binding signal (z-score),[27],-0.684
same,glycan array binding signal (z-score),[28],0.036
same,glycan array binding signal (z-score),Man(a1-2)Man(a1-3)Man,-0.203

# Fetched one by one from the list above (two):
binder,measurement,setting,value
B1,glycan array binding signal (z-score),Kdn(a2-3)Gal(b1-4)GlcNAc,-0.514
same,glycan array binding signal (z-score),[27],-0.684
